The subject of data set [1] is Aβ40 in conditioned medium of cells stably expressing Amyloid Precursor Protein (APP). As to the kind of experiment: In vitro BACE cell-based assay (Aβ40 in conditioned medium, sandwich ELISA). (An ELISA detects its analyte on a solid surface through an enzyme-linked reagent.)
In data set [2] the target is Beta Secretase enzyme (BACE) (Homo sapiens, UniProt P56817). Put plainly: In vitro enzymatic BACE FRET (fluorescence resonance energy transfer) assay.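 Also: fluorescence read after 1 h with 50 nM quenched peptide substrate spanning the BACE cleavage site, in pH 4.2 acetate buffer containing 10% DMSO and nonionic detergent.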 In kind it is biochemical.
Data set [3] concerns the target CYP2D6 (Homo sapiens, UniProt P10635). Put plainly: CYP2D6 inhibition assay (bufuralol, pooled human liver microsomes). In kind it is in vitro ADME. Particulars: read-out: 2D6 IC50. (In general: Liver microsomes are a subcellular fraction often used to study metabolism.)
Data set [4] is described as follows: Microsomal stability assay, human liver microsomes.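 Also: pooled human liver microsomes at 0.25 mg/mL with 1 µM compound and NADPH at 37 °C, pH 7.4, for 30 min, unchanged parent quantified by LC-MS/MS against the 0 min sample.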 In kind it is in vitro ADME.
Data set [5] in a line: Microsomal stability assay, rat liver microsomes.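 Also: rat liver microsomes (0.25 mg/mL) with about 1 µM compound plus 1 mM NADPH, pH 7.4, 37 °C for 30 min, parent left measured by LC-MS/MS against 0 min.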 In kind it is in vitro ADME.
The target in data set [6] is CYP3A (Homo sapiens, UniProt P08684). Particulars: read-out: 3A4 IC50.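 Also: inhibition of CYP3A-mediated 1-hydroxymidazolam formation after 10 min incubation with NADPH, quantified by HPLC MS relative to metabolite produced without test compound.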
[7] abbreviates: read-out: HEK cell assay (IC50), HEK cells, cell-based assay.
The mark [8] stands for this setting: read-out: BACE1 FRET assay (IC50), BACE enzyme FRET assay.

Protein sequences, listed by entry. Tags and fused reporters are not part of them. Residues count along the entry.
UniProt P56817, 46-501 limits assumed: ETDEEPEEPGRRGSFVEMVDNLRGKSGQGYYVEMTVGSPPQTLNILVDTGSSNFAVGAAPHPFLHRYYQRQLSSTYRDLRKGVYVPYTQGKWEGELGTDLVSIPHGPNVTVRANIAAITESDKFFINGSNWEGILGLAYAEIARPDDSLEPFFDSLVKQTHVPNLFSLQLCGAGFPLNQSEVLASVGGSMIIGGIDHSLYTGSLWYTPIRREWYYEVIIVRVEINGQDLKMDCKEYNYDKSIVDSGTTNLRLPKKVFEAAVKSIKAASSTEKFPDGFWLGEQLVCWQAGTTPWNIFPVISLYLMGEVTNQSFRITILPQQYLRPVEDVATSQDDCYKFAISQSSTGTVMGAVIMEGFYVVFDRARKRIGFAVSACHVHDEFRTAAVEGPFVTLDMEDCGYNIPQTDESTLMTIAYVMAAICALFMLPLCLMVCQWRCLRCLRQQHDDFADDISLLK
UniProt P10635, whole entry: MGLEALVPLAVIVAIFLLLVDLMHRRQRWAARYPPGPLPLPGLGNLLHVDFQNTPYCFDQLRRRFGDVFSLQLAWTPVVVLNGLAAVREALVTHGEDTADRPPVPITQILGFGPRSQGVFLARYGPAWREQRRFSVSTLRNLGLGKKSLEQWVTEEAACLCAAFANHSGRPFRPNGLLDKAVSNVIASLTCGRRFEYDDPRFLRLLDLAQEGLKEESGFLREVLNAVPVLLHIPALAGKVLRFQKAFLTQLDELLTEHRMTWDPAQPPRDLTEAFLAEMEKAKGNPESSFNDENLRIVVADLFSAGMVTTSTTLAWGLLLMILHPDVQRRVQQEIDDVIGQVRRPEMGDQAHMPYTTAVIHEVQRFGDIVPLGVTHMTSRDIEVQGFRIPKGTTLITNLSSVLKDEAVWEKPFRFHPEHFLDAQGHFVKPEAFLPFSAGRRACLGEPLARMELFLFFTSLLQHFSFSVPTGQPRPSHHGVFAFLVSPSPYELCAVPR
UniProt P08684, 2-503 limits assumed: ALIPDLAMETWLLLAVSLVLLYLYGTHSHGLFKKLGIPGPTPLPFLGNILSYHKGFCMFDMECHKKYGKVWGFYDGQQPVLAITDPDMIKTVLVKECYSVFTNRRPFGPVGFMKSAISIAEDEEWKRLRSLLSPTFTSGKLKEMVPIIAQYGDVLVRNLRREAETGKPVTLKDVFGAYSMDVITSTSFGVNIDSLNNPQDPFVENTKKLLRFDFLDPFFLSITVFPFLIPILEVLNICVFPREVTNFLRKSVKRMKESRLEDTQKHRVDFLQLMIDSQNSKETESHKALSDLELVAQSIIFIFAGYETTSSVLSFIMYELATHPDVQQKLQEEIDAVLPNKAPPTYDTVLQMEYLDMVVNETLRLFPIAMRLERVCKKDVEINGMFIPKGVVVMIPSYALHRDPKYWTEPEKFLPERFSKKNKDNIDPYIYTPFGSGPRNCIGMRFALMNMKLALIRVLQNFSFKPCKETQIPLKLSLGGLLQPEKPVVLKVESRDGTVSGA

Read-outs that look alike come from different tables or passages of the source. Structures were worked out from names or drawings and are uncertain.

In the case of `CC(=O)N[C@@H](Cc1cccc(F)c1)[C@H](O)CN[C@H]1CC2(CCC2)Oc2ncc(C(F)[C@@H](C)C(F)(F)F)cc21` (some centres unmarked), the IC50 is 63.2 nM in data set [1] (read-out: HEK cell assay, Table 1, HEK cells) and 13.7 nM in data set [2] (read-out: BACE1 FRET assay, Table 1).

Regarding `COCC(=O)N[C@@H](Cc1ccc(F)c(-c2cncs2)c1)[C@H](O)CN[C@H]1CC2(CCC2)Oc2ncc(CC(C)(C)C)cc21` [compound 684, N-((1S,2R)-3-(((4′S)-6′-(2,2-dimethylpropyl)-3′,4′-dihydrospiro[cyclobutane-1,2′-pyrano[2,3-b]pyridin]-4′-yl)amino)-1-(4-fluoro-3-(1,3-thiazol-5-yl)benzyl)-2-hydroxypropyl)-2-methoxyacetamide], the IC50 in data set [1] (read-out: HEK cell assay (IC50), HEK cells) is 25 nM; in data set [3] (CYP2D6 inhibition), 200 nM; in data set [2] (read-out: BACE1 FRET assay (IC50)), 4 nM. In addition, in data set [4] (human liver microsomes), the HLM amounted to 78 µL/min/mg. The molecule further had an RLM in data set [5] (rat liver microsomes) of 74 µL/min/mg.

For the molecule `CO[C@H](C)C(=O)N[C@@H](Cc1cc(F)c2c(c1)OCO2)C(O)CN[C@H]1CC2(CCC2)Oc2ncc(CC(C)(C)C)cc21` (some centres unmarked), the IC50 stood at 12.2 nM in data set [1] (setting [7]) and 15 nM in data set [2] (setting [8]).

Consider `COCC(=O)N[C@@H](Cc1cc(F)c2c(c1)OCO2)C(O)CN[C@H]1CC2(CCC2)Oc2ncc(CC(C)(C)C)cc21` (some centres unmarked), for which the IC50 in data set [1] (setting [7]) is 7.1 nM; in data set [2] (setting [8]), 9.17 nM.

On to `CC(=O)N[C@@H](Cc1cc(F)c2c(c1)OCO2)C(O)CN[C@H]1CC2(CCC2)Oc2ncc(CC(C)(C)C)cc21` (some centres unmarked), for which the IC50 amounted to 8.53 nM in data set [1] (read-out: HEK cell assay (IC50), HEK cells, cell-based assay, tested form: mixture of the (2R) and (2S) carbinol ep); 7.78 nM in data set [2] (read-out: BACE1 FRET assay (IC50), BACE enzyme FRET assay, tested form: mixture of the (2R) and (2S) carbinol ep).

Regarding `COC(C)C(=O)N[C@@H](Cc1cccc(F)c1)[C@H](O)CN[C@H]1CC2(CCC2)Oc2ncc(CCC(F)(F)F)cc21` (some centres unmarked), the IC50 in data set [1] (setting [7]) worked out at 281 nM; in data set [2] (setting [8]), 127 nM.

`COCC(=O)N[C@@H](Cc1ccc2c(c1)OCO2)[C@H](O)CN[C@H]1CC2(CCC2)Oc2ncc(C(F)(F)C(C)(C)C)cc21`: the IC50 stood at 67 nM in data set [1] (read-out: HEK cell assay, HEK cell-based assay IC50); 627 nM in data set [1] (read-out: HEK cell assay, HEK cells); 1400 nM in data set [3] (CYP2D6 inhibition); 3200 nM in data set [3] (CYP enzyme inhibition); 280 nM in data set [2] (read-out: BACE1 FRET assay, BACE enzyme assay); 6 nM in data set [2] (read-out: BACE1 FRET assay, BACE enzyme assay IC50). Moreover, the IC50 in data set [6] (CYP3A4 inhibition) stood at 200 nM; in data set [6] (CYP enzyme inhibition), 100 nM. The “HLM” value in data set [4] (human liver microsomal data) amounted to 40 µL/min/mg; in data set [4] (human liver microsomes) it was 158 µL/min/mg. The entries for the “RLM” value in data set [5] (rat liver microsomal data) and in data set [5] (rat liver microsomes) were 187 µL/min/mg and 123 µL/min/mg, respectively.

Regarding `CC(=O)N[C@@H](Cc1ccc(F)cc1)[C@H](O)CN[C@H]1CC2(CCOC2)Oc2c(F)cc(CC(C)(C)C)cc21` (some centres unmarked), the IC50 in data set [1] (setting [7]) came to 45.4 nM; in data set [2] (read-out: BACE1 FRET assay (IC50), BACE enzyme assay), 19.6 nM.

The record behind these values is patent publication US8163909B2, “Substituted hydroxyethyl amine compounds as beta-secretase modulators and methods of use” (Amgen Inc., priority 2007, dated 2012).
